No constants are given. Whether binding was seen depends on the method and setting. In cells and extracts the contact can be indirect. Some entries that bind do so weakly or less than the wild type.
Molecular target: T1, Stimulator of interferon genes protein (STING) (mouse (endogenous in L929)) (UniProt Q3TBT3)
T1 sequence: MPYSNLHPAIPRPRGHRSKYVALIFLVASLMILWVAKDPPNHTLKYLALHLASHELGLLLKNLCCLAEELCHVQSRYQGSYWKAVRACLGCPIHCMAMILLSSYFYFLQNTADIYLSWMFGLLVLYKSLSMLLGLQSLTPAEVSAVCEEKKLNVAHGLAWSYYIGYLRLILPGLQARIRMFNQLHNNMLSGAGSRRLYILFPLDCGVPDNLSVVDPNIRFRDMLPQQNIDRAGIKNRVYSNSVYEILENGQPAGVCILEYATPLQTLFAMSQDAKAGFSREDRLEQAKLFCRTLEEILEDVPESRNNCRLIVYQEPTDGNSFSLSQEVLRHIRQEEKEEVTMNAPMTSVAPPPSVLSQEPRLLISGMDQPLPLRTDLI
Experiment: co-IP; L929 cells stimulated with S-cddA (100 nM), ML323 (5 uM) or both for 1 or 2 h; IP lysis buffer; 1 mg/500 uL lysate with primary antibody overnight at 4 C, Protein A + G Agarose 4 h, TBS washes; Western blot

Chains of the proteins cited; added tags and fusions are not shown.
UniProt Q6PF93: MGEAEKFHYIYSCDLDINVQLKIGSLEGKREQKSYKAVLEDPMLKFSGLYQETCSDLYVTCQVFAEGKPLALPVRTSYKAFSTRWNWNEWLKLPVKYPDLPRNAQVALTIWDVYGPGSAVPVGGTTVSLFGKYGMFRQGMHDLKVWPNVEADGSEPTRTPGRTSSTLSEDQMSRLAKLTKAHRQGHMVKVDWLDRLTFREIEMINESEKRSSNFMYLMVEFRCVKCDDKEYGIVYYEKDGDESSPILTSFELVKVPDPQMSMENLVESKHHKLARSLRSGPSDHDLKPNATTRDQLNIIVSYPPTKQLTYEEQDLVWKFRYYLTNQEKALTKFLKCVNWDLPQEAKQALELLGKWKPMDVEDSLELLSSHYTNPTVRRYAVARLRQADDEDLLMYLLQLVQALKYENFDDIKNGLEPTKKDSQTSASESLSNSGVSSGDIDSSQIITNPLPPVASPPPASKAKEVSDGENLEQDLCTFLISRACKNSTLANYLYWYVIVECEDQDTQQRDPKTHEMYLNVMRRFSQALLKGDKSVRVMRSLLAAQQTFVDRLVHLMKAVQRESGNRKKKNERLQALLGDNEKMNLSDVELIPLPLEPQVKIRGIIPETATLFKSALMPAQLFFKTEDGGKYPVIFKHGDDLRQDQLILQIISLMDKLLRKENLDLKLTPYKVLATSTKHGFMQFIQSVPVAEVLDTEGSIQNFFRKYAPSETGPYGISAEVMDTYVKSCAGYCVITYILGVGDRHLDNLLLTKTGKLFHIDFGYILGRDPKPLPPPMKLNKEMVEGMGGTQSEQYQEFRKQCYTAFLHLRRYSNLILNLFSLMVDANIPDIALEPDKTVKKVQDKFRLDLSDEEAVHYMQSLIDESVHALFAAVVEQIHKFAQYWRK

Row | binding | Substance
1 | binds | STING ER exit protein (STEEP) (from UniProt Q8VDP2 1-222)
2 | no binding | vacuolar protein sorting 34 (VPS34) (from UniProt Q6PF93 1-887)
